Results as given in the supplement of paper PMC12067093, “Discovery and optimisation of a covalent ligand for TRIM25 and its application to targeted protein ubiquitination” (Chemical Science, 2025).
Some of the results follow.

Protein sequences, listed by entry. Tags and fused reporters are not part of them. Lines headed by an entry give the natural chain unless they say otherwise; changes in a name come on top.
UniProt Q15437: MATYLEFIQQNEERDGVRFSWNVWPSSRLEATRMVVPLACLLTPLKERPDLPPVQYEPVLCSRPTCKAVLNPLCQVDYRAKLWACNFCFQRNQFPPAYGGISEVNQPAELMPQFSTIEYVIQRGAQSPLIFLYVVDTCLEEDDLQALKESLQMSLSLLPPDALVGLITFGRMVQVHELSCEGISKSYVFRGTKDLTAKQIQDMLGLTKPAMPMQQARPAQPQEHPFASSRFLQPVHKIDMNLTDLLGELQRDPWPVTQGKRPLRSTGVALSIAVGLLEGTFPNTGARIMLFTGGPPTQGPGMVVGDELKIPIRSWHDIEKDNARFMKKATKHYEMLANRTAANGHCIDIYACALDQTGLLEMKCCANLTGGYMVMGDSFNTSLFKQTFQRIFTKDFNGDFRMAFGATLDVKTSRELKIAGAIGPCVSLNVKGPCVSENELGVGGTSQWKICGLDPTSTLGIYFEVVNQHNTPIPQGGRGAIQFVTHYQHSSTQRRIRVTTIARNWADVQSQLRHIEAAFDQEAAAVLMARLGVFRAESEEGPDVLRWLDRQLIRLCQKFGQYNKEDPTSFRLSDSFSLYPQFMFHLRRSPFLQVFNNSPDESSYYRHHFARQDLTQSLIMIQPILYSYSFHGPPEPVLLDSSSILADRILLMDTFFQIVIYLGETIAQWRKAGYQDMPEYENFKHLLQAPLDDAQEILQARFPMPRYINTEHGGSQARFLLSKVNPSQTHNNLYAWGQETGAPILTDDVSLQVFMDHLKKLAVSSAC
UniProt P31040: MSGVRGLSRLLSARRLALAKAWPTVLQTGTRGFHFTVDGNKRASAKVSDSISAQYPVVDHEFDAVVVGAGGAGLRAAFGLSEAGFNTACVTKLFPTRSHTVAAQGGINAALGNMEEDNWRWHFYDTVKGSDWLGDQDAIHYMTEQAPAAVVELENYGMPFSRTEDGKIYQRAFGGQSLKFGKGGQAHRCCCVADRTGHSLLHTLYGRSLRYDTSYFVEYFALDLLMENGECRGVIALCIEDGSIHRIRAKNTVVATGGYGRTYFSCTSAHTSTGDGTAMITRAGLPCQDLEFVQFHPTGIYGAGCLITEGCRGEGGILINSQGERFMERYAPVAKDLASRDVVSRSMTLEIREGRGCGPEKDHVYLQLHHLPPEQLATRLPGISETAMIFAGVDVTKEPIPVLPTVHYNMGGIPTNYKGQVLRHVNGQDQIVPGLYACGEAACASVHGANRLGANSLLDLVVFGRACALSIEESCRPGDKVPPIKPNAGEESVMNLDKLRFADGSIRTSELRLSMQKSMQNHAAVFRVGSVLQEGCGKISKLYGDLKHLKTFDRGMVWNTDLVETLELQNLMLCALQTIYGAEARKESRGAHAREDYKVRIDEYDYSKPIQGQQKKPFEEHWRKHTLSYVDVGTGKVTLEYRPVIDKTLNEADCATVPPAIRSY
UniProt P53992: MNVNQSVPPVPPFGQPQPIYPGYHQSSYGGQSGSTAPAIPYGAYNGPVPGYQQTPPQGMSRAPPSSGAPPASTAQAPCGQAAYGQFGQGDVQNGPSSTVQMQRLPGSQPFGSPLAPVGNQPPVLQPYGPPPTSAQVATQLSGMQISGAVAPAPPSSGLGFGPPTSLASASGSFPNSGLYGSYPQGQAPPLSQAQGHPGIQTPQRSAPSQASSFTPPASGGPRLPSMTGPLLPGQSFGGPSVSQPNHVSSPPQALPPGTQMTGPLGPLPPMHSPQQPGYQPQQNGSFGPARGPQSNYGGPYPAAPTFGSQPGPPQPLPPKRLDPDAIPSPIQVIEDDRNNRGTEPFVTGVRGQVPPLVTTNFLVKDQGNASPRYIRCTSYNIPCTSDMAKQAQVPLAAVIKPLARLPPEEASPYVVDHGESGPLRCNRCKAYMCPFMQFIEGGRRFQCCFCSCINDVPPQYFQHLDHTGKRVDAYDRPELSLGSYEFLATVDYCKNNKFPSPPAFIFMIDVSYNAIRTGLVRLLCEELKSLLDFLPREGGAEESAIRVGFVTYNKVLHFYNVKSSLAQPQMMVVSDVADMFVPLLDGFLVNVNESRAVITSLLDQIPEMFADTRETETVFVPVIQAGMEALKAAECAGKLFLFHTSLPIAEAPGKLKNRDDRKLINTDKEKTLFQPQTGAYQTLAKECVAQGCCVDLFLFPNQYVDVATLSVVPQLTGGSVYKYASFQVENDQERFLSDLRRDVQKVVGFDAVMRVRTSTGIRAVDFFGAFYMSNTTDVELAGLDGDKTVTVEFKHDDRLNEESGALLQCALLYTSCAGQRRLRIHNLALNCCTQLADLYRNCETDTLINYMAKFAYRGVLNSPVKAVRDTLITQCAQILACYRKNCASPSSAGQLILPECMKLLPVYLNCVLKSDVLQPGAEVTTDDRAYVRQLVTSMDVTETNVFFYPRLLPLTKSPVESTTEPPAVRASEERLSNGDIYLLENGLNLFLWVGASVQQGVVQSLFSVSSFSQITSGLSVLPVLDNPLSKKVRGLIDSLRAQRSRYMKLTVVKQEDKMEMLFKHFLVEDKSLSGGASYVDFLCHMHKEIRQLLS
UniProt Q9Y6Y8: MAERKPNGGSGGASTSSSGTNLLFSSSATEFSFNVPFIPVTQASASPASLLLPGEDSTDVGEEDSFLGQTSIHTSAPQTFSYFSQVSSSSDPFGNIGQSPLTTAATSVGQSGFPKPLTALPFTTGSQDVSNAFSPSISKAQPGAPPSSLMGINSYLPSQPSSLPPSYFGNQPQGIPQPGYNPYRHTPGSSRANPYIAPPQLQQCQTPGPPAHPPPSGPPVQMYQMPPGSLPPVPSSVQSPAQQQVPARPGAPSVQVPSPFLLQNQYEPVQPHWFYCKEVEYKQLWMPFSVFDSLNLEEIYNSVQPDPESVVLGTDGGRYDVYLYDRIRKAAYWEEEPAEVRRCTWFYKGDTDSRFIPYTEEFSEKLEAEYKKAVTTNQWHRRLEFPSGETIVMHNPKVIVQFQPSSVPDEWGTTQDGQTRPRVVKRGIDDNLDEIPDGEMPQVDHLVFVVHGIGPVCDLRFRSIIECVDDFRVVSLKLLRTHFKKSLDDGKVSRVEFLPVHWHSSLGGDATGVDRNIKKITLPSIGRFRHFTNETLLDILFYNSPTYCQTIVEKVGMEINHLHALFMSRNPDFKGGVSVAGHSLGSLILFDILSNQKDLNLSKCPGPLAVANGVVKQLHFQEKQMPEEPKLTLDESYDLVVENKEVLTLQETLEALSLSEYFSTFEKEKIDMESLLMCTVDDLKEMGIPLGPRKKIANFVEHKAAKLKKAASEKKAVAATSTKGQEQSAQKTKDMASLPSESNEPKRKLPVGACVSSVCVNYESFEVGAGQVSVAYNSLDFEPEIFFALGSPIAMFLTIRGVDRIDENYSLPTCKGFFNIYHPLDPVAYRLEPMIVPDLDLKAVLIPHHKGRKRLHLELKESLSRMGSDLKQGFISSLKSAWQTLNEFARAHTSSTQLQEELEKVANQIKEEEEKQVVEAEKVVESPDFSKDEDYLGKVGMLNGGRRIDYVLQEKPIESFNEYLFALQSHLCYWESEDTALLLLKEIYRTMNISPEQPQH
UniProt Q9UPW6: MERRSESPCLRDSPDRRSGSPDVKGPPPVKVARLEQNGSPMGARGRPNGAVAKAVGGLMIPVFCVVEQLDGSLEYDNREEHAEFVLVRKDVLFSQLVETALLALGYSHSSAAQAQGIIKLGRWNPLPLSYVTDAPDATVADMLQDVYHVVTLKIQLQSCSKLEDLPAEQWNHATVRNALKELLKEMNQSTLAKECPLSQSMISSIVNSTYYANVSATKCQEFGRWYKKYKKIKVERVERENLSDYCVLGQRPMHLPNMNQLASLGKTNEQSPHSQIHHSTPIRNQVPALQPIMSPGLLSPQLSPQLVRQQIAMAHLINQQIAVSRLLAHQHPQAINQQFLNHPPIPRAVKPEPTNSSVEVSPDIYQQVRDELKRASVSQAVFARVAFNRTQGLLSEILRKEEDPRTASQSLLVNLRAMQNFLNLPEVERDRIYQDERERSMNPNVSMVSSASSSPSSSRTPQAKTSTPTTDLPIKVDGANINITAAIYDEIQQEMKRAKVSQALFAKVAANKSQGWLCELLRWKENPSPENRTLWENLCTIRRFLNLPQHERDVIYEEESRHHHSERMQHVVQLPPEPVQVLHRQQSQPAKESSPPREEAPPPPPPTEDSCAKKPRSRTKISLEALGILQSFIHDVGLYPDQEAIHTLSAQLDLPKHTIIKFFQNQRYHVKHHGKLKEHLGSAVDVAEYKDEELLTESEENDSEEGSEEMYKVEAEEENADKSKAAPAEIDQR
UniProt Q99611, whole entry: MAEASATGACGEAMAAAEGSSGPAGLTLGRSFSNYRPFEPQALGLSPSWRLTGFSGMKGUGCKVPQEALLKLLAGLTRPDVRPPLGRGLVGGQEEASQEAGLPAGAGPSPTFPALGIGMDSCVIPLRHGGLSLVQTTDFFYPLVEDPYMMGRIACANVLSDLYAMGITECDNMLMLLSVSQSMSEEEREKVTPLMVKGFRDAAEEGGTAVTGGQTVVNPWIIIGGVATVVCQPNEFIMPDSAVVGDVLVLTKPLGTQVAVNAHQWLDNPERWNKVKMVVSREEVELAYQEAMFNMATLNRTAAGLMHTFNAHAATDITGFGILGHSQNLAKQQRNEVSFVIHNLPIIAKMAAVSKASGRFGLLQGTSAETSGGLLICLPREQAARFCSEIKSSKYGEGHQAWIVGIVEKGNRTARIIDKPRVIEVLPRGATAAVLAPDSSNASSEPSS
UniProt O95248: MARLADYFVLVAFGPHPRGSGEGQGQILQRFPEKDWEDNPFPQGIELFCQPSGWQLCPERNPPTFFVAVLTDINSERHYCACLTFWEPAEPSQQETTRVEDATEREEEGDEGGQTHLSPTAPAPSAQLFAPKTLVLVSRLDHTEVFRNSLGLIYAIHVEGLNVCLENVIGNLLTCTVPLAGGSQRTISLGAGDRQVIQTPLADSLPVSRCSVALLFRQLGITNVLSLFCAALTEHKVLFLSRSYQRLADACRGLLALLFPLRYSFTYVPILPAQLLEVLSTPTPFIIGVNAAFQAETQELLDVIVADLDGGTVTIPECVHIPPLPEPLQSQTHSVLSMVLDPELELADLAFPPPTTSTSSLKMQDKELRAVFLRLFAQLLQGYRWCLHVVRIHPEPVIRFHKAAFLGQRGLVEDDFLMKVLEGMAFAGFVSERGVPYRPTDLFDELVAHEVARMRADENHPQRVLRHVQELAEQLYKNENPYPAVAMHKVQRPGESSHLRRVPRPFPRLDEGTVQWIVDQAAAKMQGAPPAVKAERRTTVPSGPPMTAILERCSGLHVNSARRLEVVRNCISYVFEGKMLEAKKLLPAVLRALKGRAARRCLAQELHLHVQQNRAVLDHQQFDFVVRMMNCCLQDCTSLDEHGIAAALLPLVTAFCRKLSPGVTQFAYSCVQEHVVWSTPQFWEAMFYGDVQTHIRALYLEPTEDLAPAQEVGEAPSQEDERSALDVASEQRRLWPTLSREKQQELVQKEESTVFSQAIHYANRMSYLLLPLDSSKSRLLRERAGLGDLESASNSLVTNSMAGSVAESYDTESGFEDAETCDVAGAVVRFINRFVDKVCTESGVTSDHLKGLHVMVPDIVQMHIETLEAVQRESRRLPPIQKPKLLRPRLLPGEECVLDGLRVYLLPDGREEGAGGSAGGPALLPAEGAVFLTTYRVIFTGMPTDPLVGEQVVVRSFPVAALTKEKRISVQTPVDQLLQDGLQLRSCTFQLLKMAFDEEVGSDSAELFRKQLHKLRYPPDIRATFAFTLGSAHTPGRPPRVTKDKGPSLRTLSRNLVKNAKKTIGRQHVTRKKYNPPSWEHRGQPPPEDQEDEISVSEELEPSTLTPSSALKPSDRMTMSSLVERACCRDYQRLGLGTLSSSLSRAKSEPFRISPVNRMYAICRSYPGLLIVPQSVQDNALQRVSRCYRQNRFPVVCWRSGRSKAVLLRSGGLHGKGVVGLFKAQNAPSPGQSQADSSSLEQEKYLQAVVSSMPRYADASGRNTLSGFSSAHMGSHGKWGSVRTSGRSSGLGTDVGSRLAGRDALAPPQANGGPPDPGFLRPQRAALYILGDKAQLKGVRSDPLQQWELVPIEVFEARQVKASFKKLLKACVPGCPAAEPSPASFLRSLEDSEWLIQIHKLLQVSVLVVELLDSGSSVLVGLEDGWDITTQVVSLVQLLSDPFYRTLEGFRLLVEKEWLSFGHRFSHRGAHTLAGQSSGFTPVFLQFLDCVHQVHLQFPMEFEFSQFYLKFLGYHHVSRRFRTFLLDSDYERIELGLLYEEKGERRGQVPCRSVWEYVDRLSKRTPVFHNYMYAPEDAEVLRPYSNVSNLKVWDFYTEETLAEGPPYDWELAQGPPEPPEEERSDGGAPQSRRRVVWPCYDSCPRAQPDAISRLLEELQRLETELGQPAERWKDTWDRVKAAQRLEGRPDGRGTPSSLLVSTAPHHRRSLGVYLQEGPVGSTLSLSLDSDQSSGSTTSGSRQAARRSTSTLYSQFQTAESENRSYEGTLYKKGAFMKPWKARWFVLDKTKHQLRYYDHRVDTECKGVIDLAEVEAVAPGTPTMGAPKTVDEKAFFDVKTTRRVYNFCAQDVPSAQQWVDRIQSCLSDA

Compound: CC1Cc2ccccc2N1C(=O)C1CCCN(C1)C(=O)CCl (mixture of isomers) [TRIM25 ligand 11 (diastereomer mixture)]
Assay: probe-labelled cysteine peptide fold change vs DMSO (competition) (log2 fold change); higher = less target engagement (more negative = stronger competition)
Settings: THP-1, incubation time: 4 h
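Note: competitive chemoproteomic profiling in live THP-1 cells with an iodoacetamide desthiobiotin (IA-DTB) probe, comparing probe-labelled peptide intensities in compound-treated cells against DMSO-treated controls.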

| Target | probe-labelled cysteine peptide fold change (10 µM) | probe-labelled cysteine peptide fold change (50 µM) |
| --- | --- | --- |
| SEC23B_Q15437_434_GPCVSENELGVGGTSQWK (UniProt Q15437) | 0.0914 | 0.096 |
| SDHA_P31040_536_VGSVLQEGCGK (UniProt P31040) | 0.0561 | -0.0167 |
| SEC24C_P53992_1083_SLSGGASYVDFLCHMHK (UniProt P53992) | -0.00365 | -0.0895 |
| SEC23IP_Q9Y6Y8_467_SIIECVDDFR (UniProt Q9Y6Y8) | 0.13 | 0.172 |
| SDF2_Q99470_80_SATVCER (UniProt Q99470) | -0.0318 | 0.0662 |
| SATB2_Q9UPW6_539_TLWENLCTIR (UniProt Q9UPW6) | 0.0117 | 0.0195 |
| SEPHS2_Q99611_377_FGLLQGTSAETSGGLLICLPR (UniProt Q99611) | 0.196 | -0.657 |
| SCCPDH_Q8NBX0_238_WPISYCR (UniProt Q8NBX0) | -0.173 | -0.176 |
| SEC23IP_Q9Y6Y8_814_IDENYSLPTCK (UniProt Q9Y6Y8) | 0.128 | 0.00562 |
| SATB1_Q01826_78_GTMLPVFCVVEHYENAIEYDCKEEHAEFVLVRK (UniProt Q01826) | -0.205 | 0.0349 |
| SCMH1_Q96GD3_116_LVDSAEIQPIGNCEK (UniProt Q96GD3) | 0.0496 | 0.0724 |
| SEMA4D_Q92854_512_HGTCEDCVLAR (UniProt Q92854) | 0.254 | 0.105 |
| SBF1_O95248_1197_FPVVCWR (UniProt O95248) | -0.118 | 0.038 |
| SDHA_P31040_266_TYFSCTSAHTSTGDGTAMITR (UniProt P31040) | 0.356 | 0.0782 |

Given field by field: part of the list above
SEC24C_P53992_1083_SLSGGASYVDFLCHMHK (UniProt P53992)
  probe-labelled cysteine peptide fold change (10 µM): -0.00365; probe-labelled cysteine peptide fold change (50 µM): -0.0895
SEC23IP_Q9Y6Y8_467_SIIECVDDFR (UniProt Q9Y6Y8)
  probe-labelled cysteine peptide fold change (10 µM): 0.13; probe-labelled cysteine peptide fold change (50 µM): 0.172
